According to the supplement of paper PMC7877785:
± gives the uncertainty stated by the source. The uncertainty is large for many entries.

Experiment: self-splicing fitness, log relative to wild type (ln ratio); higher = more splicing; Tetrahymena group I intron in knt gene, E. coli kanamycin selection, DiMSum; sequences stand for … in CUCUCU…GGAGGGAAAAGUUAUCAGGCAUGCACCUGGUAGCUAGUCUUUAAACCAAUAGAUUGCAUCGGUUUAAAAGGCAAGACCGUCAAAUUGCGGGAAAGGGGUCAACAGCCGUUCAGUACCAAGUCUCAGGGGAAACUUUGAGAUGGCCUUGCAAAGGGUAUGGUAAUAAGCUGACGGACAUGGUCCUAACCACGCAGCCAAGUCCUAAGUCAACAGAUCUUCUGUUGAUAUGGAUGCAGUUCACAGACUAAAUGUCGGUCGGGGAAGAUGUAUUCUUCUCAUAAGAUAUAGUCGGACCUCUCCUUAAUGGGAGCUAGCGGAUGAAGUGAUGCAACACUGGAGCCGCUGGGAACUAAUUUGUAUGCGAAAGUAUAUUGAUUAGUUUUGGAGUACUCGUGGUCG
Method in brief: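 Colonies from six replicate transformations of E. coli BL21(DE3) were pooled and amplicon-sequenced on an Illumina HiSeq 2500. The library placed an intron with all eight P1ex-region nucleotides randomised inside the knt kanamycin-resistance gene on pET-22b(+), and cells grew overnight at 37°C or 30°C on LB agar with or without 25 μg/mL kanamycin (plus 100 μg/mL carbenicillin, 50 μM IPTG, 0.2% rhamnose). Fitness is the DiMSum error-weighted combination of wild-type-normalised replicate fold changes, kanamycin versus none.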

Row | Sequence | self-splicing fitness (ln) (37 °C) | self-splicing fitness (ln) (30 °C)
1 | AGUAAGCAAUAUUACGCCAC | -2.04 ± 0.77 | –
2 | AAGGAGCAAUAUUACGCAGC | -1.21 ± 0.53 | -2.85 ± 0.66
3 | CUACAGCAAUAUUACGAGGC | – | -3.28 ± 0.52
4 | UUGUAGCAAUAUUACGCCGC | – | -3.87 ± 0.73
5 | GGCAAGCAAUAUUACGCCUG | – | -3.22 ± 0.64
6 | GACGAGCAAUAUUACGCGUC | -2.2 ± 1.1 | –
7 | UUUAAGCAAUAUUACGGGUU | -1.67 ± 0.22 | -2.83 ± 0.3
8 | ACGCAGCAAUAUUACGAGUA | -3.07 ± 0.27 | -3.72 ± 0.33
9 | CGUGAGCAAUAUUACGACGC | -1.39 ± 1.2 | -2.53 ± 0.84
10 | CAGGAGCAAUAUUACGUGAA | -3.2 ± 0.43 | -3.52 ± 0.38
11 | GUUGAGCAAUAUUACGUCGA | -1.29 ± 0.71 | -1.66 ± 0.52
12 | GAUGAGCAAUAUUACGUUGU | – | -3.53 ± 0.61
13 | AGAGAGCAAUAUUACGCACG | -2.03 ± 0.81 | –
14 | GUCUAGCAAUAUUACGGGAU | -3.39 ± 0.42 | -4.48 ± 0.42
15 | UUAAAGCAAUAUUACGGCUC | 0.714 ± 0.23 | -0.0999 ± 0.18
16 | CCGAAGCAAUAUUACGACAC | -1.09 ± 0.73 | -3.72 ± 1
17 | AUGAAGCAAUAUUACGAAUC | -2.95 ± 0.74 | –
18 | UAGCAGCAAUAUUACGGCUC | -0.839 ± 0.12 | -0.698 ± 0.094
19 | UAUUAGCAAUAUUACGUGGC | – | -3.66 ± 0.6
20 | CUCUAGCAAUAUUACGACCU | -3.68 ± 0.6 | –
21 | AGGGAGCAAUAUUACGAGGA | -2.88 ± 1.1 | –
22 | CACUAGCAAUAUUACGAGCA | -0.879 ± 0.11 | -3.42 ± 0.18
23 | GUGGAGCAAUAUUACGCAUA | – | -2.88 ± 0.59
24 | AUGGAGCAAUAUUACGUCAU | – | -2.29 ± 0.52

Row | Sequence | self-splicing fitness (ln) (37 °C) | self-splicing fitness (ln) (30 °C)
25 | GACGAGCAAUAUUACGCCAG | – | -4.66 ± 1
26 | UAGCAGCAAUAUUACGAUCC | -1.69 ± 1.2 | -2.34 ± 0.8
27 | GAUAAGCAAUAUUACGAGAA | – | -2.31 ± 0.87
28 | GGGUAGCAAUAUUACGAGUG | -1.63 ± 0.55 | -2.81 ± 0.82
29 | UAAGAGCAAUAUUACGGCAC | -1.16 ± 0.48 | -2.31 ± 0.51
30 | UUGGAGCAAUAUUACGAUAU | – | -3.92 ± 0.6
31 | AUGGAGCAAUAUUACGAAAC | -2.06 ± 0.78 | –
32 | AGUCAGCAAUAUUACGUCAC | -2.51 ± 0.54 | -3.5 ± 1
33 | GGUAAGCAAUAUUACGUAGU | -1.46 ± 0.17 | -1.48 ± 0.11
34 | AAUCAGCAAUAUUACGUGCA | 0.221 ± 0.084 | -0.181 ± 0.067
35 | ACUUAGCAAUAUUACGGCAG | -0.759 ± 0.12 | -1.6 ± 0.092
36 | CAGUAGCAAUAUUACGGCCU | -1.67 ± 0.17 | -3.02 ± 0.2
37 | UGCUAGCAAUAUUACGAUUC | – | -4.45 ± 0.59
38 | UACGAGCAAUAUUACGAUAU | -3.25 ± 0.37 | -2.39 ± 0.26
39 | GUAUAGCAAUAUUACGUUCC | -0.238 ± 0.62 | –
40 | CGCGAGCAAUAUUACGGAUA | -2.79 ± 0.53 | –
41 | GCGGAGCAAUAUUACGCGAG | – | -4.61 ± 0.72
42 | CGAGAGCAAUAUUACGGUUC | -2.76 ± 0.75 | -2.31 ± 0.68
43 | CCAAAGCAAUAUUACGCCGC | – | -3.32 ± 0.53
44 | GCGCAGCAAUAUUACGCGCG | -2.82 ± 0.53 | –
45 | UAAGAGCAAUAUUACGAUCC | -2.29 ± 0.56 | –
46 | GAGGAGCAAUAUUACGUUGG | – | -3.46 ± 0.62
47 | CGGCAGCAAUAUUACGAGAU | -2.81 ± 0.27 | -1.99 ± 0.19
48 | GGAUAGCAAUAUUACGCGGU | -2.6 ± 0.38 | -2.47 ± 0.33

Looked up one by one from the entries so far (three):
Row | Sequence | self-splicing fitness (ln) (37 °C) | self-splicing fitness (ln) (30 °C)
20 | CUCUAGCAAUAUUACGACCU | -3.68 ± 0.6 | –
1 | AGUAAGCAAUAUUACGCCAC | -2.04 ± 0.77 | –
25 | GACGAGCAAUAUUACGCCAG | – | -4.66 ± 1

Next part.

Row | Sequence | self-splicing fitness (ln) (37 °C) | self-splicing fitness (ln) (30 °C)
49 | AAGUAGCAAUAUUACGAGGC | -3.27 ± 0.53 | –
50 | CCUAAGCAAUAUUACGACAC | -2.03 ± 0.29 | -3.33 ± 0.44
51 | UGUGAGCAAUAUUACGGACC | 3.4 ± 1 | –
52 | CGAAAGCAAUAUUACGAAUU | -1.55 ± 0.14 | -4.27 ± 0.29
53 | GGAAAGCAAUAUUACGUCGG | -2.61 ± 0.62 | –
54 | CUGCAGCAAUAUUACGUUCC | – | -3.65 ± 0.55
55 | AGCGAGCAAUAUUACGUCAC | -3.08 ± 0.74 | -3.03 ± 0.77
56 | CGGGAGCAAUAUUACGCAAU | -3.36 ± 0.74 | -3.15 ± 0.39
57 | CUGAAGCAAUAUUACGCUUA | -2.13 ± 0.23 | -3.82 ± 0.3
58 | UCAAAGCAAUAUUACGCACC | – | -2.25 ± 0.54
59 | GCAGAGCAAUAUUACGGGGC | -3.04 ± 0.74 | –
60 | UCGCAGCAAUAUUACGUAGC | -3.74 ± 1 | -5.04 ± 1
61 | UGAUAGCAAUAUUACGAAAC | -1.78 ± 1.2 | –
62 | UUUAAGCAAUAUUACGGACC | -0.778 ± 1.4 | –
63 | AAGCAGCAAUAUUACGAGAC | – | -4.36 ± 0.6
64 | AUUGAGCAAUAUUACGGUCC | – | -4.32 ± 1
65 | CUCUAGCAAUAUUACGGCAC | -3.48 ± 0.6 | –
66 | AAGGAGCAAUAUUACGGAAC | – | -3.57 ± 0.61
67 | GAUGAGCAAUAUUACGGCAG | – | -3.06 ± 0.63
68 | ACGGAGCAAUAUUACGCGGC | -2.58 ± 0.53 | –
69 | GACCAGCAAUAUUACGGAAG | -0.75 ± 0.088 | -1.42 ± 0.08
70 | AAGCAGCAAUAUUACGGAAC | -3.32 ± 0.6 | -3.6 ± 0.3

In another format: entries from further up

| Row | Sequence | self-splicing fitness (ln) (37 °C) | self-splicing fitness (ln) (30 °C) |
| --- | --- | --- | --- |
| 41 | GCGGAGCAAUAUUACGCGAG | – | -4.61 ± 0.72 |
| 42 | CGAGAGCAAUAUUACGGUUC | -2.76 ± 0.75 | -2.31 ± 0.68 |
